PubChem BioAssay AID1159578 – Peter MacCallum Cancer Centre, 2015
This is a random part of about 18,000 reagents tested. About 1,030 of them (5.7%) count as active. 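Inactive calls also include pools with fewer than 3300 nuclei, whose migration was not assessed.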 Raw values vary from plate to plate and are shown uncorrected.

Purpose: 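siRNA pools altering how lymphatic endothelial cells close a scratch wound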 (primary screen)
Cell system: human lymphatic endothelial cells
Reagents: siRNA pool against human genes, 40 nM
Time to read-out: 48 h after transfection
Read-out: 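Cells stained with dye and imaged after a scratch; covered wound area and nuclei counted, duplicates averaged, migration set against mock wells and turned into a robust z-score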
Reading the numbers: migration robust z-score: higher = faster migration into the scratch; migration relative to mock: higher = more scratch area covered than mock; nuclei per well: higher = more cells in the well
Rule for the call: 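Pools averaging fewer than 3300 nuclei are never called; remaining pools count as changed when migration robust z lies outside -2 to 2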
Calls: active = migration changed; inactive = no migration change, or too few cells

gene	migration robust z-score	migration class with cell-count check	migration relative to mock	nuclei per well, duplicate mean	outcome
TM4SF19 (GeneID 116211)	-0.72	migration z between -2 and 2; enough cells	0.7	6501	inactive
BDH1 (GeneID 622)	0.18	migration z between -2 and 2; enough cells	0.84	6578	inactive
TRPM1 (GeneID 4308)	1.58	migration z between -2 and 2; enough cells	1.11	6038	inactive
BANK1 (GeneID 55024)	-0.22	migration z between -2 and 2; enough cells	0.83	7102	inactive
H4C8 (GeneID 8365)	1	migration z between -2 and 2; enough cells	1.14	5170	inactive
GUCY2F (GeneID 2986)	0.86	migration z between -2 and 2; enough cells	0.97	5764	inactive
ST8SIA6 (GeneID 338596)	-0.02	migration z between -2 and 2; enough cells	0.8	5062	inactive
OR5M11 (GeneID 219487)	1.88	migration z between -2 and 2; enough cells	1.37	6683	inactive
ILF3 (GeneID 3609)	-1.53	migration z between -2 and 2; enough cells	0.51	5647	inactive
ELOVL1 (GeneID 64834)	0.76	migration z between -2 and 2; enough cells	1.08	5909	inactive
NKX2-5 (GeneID 1482)	-0.8	migration z between -2 and 2; enough cells	0.65	5912	inactive
BBS5 (GeneID 129880)	0.03	migration z between -2 and 2; enough cells	0.9	3715	inactive
GABRE (GeneID 2564)	-0.64	migration z between -2 and 2; enough cells	0.68	4778	inactive
PPFIA1 (GeneID 8500)	0.2	migration z between -2 and 2; enough cells	0.84	4567	inactive
TPO (GeneID 7173)	-2.52	migration z below -2; enough cells	0.32	4344	active
ST6GALNAC2 (GeneID 10610)	-0.99	migration z between -2 and 2; enough cells	0.63	5352	inactive
KLHL28 (GeneID 54813)	0.6	migration z between -2 and 2; enough cells	1.04	5911	inactive
OR1L8 (GeneID 138881)	-0.88	migration z between -2 and 2; enough cells	0.66	5857	inactive
DGKZ (GeneID 8525)	0.24	migration z between -2 and 2; enough cells	0.94	4869	inactive
PABPC5 (GeneID 140886)	0.92	migration z between -2 and 2; enough cells	1.12	6296	inactive
ACTN3 (GeneID 89)	-0.84	migration z between -2 and 2; enough cells	0.66	5372	inactive
PLK1 (GeneID 5347)	-2.98	under 3300 nuclei; migration not judged	0.23	1036	inactive
PSMA1 (GeneID 5682)	-1.74	migration z between -2 and 2; enough cells	0.47	5012	inactive
